Source: paper doi:10.1101/2023.09.13.555514
Residue numbers refer to the chain shown, from its start. No constants are given. Whether binding was seen depends on the method and setting. In cells and extracts the contact can be indirect. For some of these results: Binding can be weak; no strength is given. For some of these results: Sequences can lack the tags named with a protein.

Amino acid sequences for entries named in this document (tags omitted).
UniProt Q9Y4B6: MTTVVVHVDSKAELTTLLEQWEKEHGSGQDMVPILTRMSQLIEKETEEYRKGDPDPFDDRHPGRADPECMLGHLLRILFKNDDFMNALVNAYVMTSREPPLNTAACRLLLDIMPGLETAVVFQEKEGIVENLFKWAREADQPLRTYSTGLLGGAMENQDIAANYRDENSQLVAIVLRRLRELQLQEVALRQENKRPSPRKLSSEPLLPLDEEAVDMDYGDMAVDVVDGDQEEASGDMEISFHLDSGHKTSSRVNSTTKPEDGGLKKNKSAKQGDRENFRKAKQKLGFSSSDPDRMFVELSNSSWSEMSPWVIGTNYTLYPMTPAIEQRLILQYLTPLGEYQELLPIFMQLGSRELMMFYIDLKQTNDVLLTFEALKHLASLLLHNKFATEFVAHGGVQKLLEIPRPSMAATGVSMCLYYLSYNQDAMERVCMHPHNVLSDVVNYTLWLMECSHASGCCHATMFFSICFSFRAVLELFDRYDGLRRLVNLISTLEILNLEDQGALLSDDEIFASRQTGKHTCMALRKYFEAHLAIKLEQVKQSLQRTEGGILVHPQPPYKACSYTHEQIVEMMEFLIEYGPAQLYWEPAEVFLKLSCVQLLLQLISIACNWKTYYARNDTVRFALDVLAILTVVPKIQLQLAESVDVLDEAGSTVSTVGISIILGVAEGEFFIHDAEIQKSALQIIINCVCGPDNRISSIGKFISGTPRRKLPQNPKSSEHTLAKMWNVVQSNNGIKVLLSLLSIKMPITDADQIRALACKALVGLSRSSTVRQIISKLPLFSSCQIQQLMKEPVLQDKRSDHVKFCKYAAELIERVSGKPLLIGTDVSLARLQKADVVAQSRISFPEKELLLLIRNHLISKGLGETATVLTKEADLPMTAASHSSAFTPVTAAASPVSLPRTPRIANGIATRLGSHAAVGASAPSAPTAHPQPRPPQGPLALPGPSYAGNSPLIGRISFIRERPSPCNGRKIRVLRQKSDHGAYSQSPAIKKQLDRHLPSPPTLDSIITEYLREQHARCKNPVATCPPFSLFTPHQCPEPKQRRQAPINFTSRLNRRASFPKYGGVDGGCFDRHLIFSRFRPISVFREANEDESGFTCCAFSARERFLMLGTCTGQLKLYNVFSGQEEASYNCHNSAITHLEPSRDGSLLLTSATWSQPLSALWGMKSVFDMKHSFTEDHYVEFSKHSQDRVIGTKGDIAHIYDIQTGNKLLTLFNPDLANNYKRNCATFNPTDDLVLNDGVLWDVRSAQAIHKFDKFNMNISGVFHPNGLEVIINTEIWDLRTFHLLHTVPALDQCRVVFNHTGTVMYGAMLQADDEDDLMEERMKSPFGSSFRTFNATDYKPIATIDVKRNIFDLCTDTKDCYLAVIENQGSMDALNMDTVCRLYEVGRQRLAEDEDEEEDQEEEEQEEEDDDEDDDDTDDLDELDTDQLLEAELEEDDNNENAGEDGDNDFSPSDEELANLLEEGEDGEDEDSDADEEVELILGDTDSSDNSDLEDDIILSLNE

Columns and labels:
Assay in all cases: co-IP
[1] = molecular target: T1, Flag-PLK4 full length (wild type) (human) (UniProt O00444)
T1 sequence: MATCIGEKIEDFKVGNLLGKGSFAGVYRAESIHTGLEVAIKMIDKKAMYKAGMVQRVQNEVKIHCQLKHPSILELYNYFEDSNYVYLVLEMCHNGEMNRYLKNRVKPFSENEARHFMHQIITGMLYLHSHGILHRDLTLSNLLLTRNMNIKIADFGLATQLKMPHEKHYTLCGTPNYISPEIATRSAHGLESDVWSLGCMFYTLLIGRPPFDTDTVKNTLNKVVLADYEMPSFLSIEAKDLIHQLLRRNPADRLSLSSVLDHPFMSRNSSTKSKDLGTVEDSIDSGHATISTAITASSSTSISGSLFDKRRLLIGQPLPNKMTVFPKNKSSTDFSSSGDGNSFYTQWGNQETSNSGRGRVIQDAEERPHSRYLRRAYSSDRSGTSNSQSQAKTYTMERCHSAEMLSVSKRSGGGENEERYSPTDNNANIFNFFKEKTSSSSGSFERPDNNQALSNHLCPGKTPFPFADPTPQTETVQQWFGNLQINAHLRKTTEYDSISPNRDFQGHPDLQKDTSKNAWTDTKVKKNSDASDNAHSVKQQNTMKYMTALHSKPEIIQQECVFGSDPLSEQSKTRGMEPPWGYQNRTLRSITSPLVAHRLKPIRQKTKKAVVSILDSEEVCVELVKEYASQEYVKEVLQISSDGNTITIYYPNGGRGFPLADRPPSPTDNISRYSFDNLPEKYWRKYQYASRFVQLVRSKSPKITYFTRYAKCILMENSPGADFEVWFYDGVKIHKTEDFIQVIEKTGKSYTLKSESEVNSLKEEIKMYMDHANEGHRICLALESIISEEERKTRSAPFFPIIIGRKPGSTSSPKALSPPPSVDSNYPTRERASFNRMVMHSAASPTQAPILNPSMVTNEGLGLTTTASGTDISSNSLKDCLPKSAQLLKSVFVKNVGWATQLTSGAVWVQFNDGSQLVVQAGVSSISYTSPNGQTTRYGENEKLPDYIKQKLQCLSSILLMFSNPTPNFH

[2] = molecular target: T2, Flag-PLK4, immunoprecipitated and dephosphorylated with λ-phosphatase (human) (UniProt O00444)
T2 sequence (chain, dephosphorylated with λ-phosphatase): T1 sequence

[3] = molecular target: T3, Flag-PLK4-AA (S285A+T289A) (human) (UniProt O00444)
T3 sequence: T1 sequence with S285A, T289A

[4] = molecular target: T4, Flag-PLK4 K41R (kinase-dead) (human) (UniProt O00444)
T4 sequence: T1 sequence with K41R

Flag-PLK4-ΔPEST (human) = Flag-PLK4-ΔPEST (human) (UniProt O00444)
[5] = molecular target: Flag-DCAF1 WD40 domain alone

## CUL4 (human (endogenous in HEK293T))
[1]
  binding: binds

## β-TrCP (endogenous) (human (endogenous in HEK293T))
[2]
  binding: binds
[3]
  binding: no binding
[4]
  binding: no binding
[1]
  binding: binds

## DCAF1 (endogenous) (from UniProt Q9Y4B6 1-1507)
Flag-PLK4-ΔPEST (human)
  binding: binds

B1: PLK4 (endogenous) (protein, UniProt O00444 1-970)
chain: T1 sequence
[5]
  binding: no binding
